Results as given in patent US11420962B2, “Indene derivatives useful in treating pain and inflammation” (TARO PHARMACEUTICALS INC., priority 2018, dated 2022).

How the values were obtained:
Mice (male, C57Bl/6) = assay: Formalin pain assay in mice; assay type: in vivo
Description: Mice (male, C57BL/6) were placed singly in a Perspex chamber for approximately 30 min on three successive days to acclimate and thereby reduce stress-induced behaviors. On the fourth day, the experimental animals received a 25 μl injection of 2.5% formalin beneath the left plantar skin using a 29-gauge syringe. […] The total time spent on flinches/licking/biting of the hind paw was recorded by visual observation for every 5 min period/interval for total observation duration of 60 min in two phases, the early phase (0-5 min) and the late phase (15-40 min). Observers were blinded to the treatment group allocation.
For test compounds, the % protection from 0-60 min was used to assess activity. Scoring for the test compounds was as follows: “A” represents a % protection of 81 to 100%, “B” represents a % protection of 61 to 80%, “C” represents a % protection of 31 to 60% and “D” represents a % protection of 0 to 30%.

[1] = system: Rats (female, Sprague-Dawley); assay: Rat ketamine cystitis (visceral pain); assay type: in vivo; details: 10 mg/kg dose
Description: Rats (female, Sprague-Dawley) received daily intraperitoneal injections of saline (sham control) or ketamine (50 mg/kg) for 14 days. Representative compounds of the invention (i.e., test compounds) were administered PO, QD starting on Day 0 at doses of 10, 3 or 1 mg/kg and Tramadol was used as a reference control compound at 10 mg/kg. Referred mechanical sensitivity was assessed on Day 7 and Day 14 by application of a series of von Frey filaments to the lower abdomen and the nociceptive threshold was scored.

COc1cccc(C2(O)CCCCC2CN(C)C)c1 (stereo not shown) [tramadol, reference compound]
% inhibition, early phase (neurogenic pain) (Mice (male, C57Bl/6); 10 mg/kg dose, 0-5 min): 51%
% inhibition, late phase (inflammatory pain) (Mice (male, C57Bl/6); 10 mg/kg dose, 15-40 min): 62%
Average AUC % Inhibition (Mice (male, C57Bl/6); reference compound): 59%
increase in the nociceptive threshold (relative to unchallenged) [1]: 85%
